In patent publication US8071558B2, “Application of D-psicose to suppression of abnormal circadian increase in blood glucose level” (Rare Sugar Production Technical Research Laboratories, LLC., priority 2005, dated 2011):

System: Male Wistar rats
Test: Influence of D-psicose diet on liver weight and composition (16-week feeding)
Format: in vivo, rat
Settings: 16 weeks
Experimental: Twenty-four male Wistar rats of age 3 weeks were fed ad libitum under a condition that the bright cycle was at a temperature of 25° C. and a humidity of 50 to 70% from 8:00 am to 20:00 pm, for preliminary feeding for one week. Subsequently, the rats were divided into 4 groups, each group consisting of 6 rats. The groups were defined a high fat/D-psicose diet (HF-P) group; a high fat/cellulose diet (HF-C) group; a low fat/D-psicose diet (LF-P) group; and a low fat/cellulose diet (LF-C) group. 20% beef fat and 5% soybean oil were used to prepare the high fat diets. 5% soybean oil was used to prepare the low fat diets. 5% D-psicose or cellulose was added to the individual diets. These rats were fed these experimental diets and water ad libitum for 16 weeks. On the last day of the experiment, the rats were decapitated and sacrificed to death, from which liver, flounder muscle and intraperitoneal fat tissues were resected. Glycogen, neutral fat and protein were assayed in the liver, while glycogen content was assayed in the flounder muscle. [table]

O=C(CO)[C@H](O)[C@H](O)[C@H](O)CO [D-psicose]
Body weight increment (high fat diet + 5% D-psicose): 239 ± 10 g
Energy efficiency (high fat diet + 5% D-psicose): 44 ± 1 mg/kcal
Energy intake (high fat diet + 5% D-psicose): 49 ± 2 kcal/day
Final body weight (high fat diet + 5% D-psicose): 321 ± 10 g
Body weight increment (low fat diet + 5% D-psicose): 244 ± 6 g
Energy efficiency (low fat diet + 5% D-psicose): 45 ± 1 mg/kcal
Energy intake (low fat diet + 5% D-psicose): 48 ± 1 kcal/day
Final body weight (low fat diet + 5% D-psicose): 326 ± 6 g
